This test addresses T1, endogenous STAT1 of HeLa cells (human (endogenous in HeLa)), P42224.
T1 chain: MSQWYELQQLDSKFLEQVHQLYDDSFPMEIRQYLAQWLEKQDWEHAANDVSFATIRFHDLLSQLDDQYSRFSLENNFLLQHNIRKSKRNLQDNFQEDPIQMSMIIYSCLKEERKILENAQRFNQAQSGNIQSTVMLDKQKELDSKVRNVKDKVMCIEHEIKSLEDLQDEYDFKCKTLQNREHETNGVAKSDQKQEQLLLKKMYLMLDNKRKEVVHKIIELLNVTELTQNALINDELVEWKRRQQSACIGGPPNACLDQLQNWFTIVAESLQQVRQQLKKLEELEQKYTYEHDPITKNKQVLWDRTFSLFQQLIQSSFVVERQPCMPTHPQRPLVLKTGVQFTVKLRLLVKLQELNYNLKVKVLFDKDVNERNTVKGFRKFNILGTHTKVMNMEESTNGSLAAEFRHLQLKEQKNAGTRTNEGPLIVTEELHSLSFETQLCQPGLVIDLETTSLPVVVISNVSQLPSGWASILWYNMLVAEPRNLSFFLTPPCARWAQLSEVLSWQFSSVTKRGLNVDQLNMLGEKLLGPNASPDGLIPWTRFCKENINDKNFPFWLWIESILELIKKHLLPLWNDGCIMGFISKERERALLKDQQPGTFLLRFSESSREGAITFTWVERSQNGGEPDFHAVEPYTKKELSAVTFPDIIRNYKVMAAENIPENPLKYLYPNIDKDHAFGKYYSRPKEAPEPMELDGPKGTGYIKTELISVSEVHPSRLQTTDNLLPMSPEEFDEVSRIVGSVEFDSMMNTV
In words: native gel or EMSA; cell extracts of IFNγ-prestimulated, staurosporine-treated HeLa cells expressing STAT1-GFP variants beside endogenous STAT1; [33P]-labelled M67 duplex oligonucleotide (single GAS site); 4% native acrylamide gel at 4°C; dimers seen as DNA-bound complexes, the heterodimer as a band between GFP-tagged and untagged homodimers; supershift with anti-STAT1 C-24. The note with it: remark: other sources report otherwise.

Results are given in words; binding and its absence hold for the method and conditions named. Some results given as binding are weak or reduced against the parent protein; the word gives no strength.

The source of these data is publication PMC4029728.

B1: endogenous STAT1 of HeLa cells, P42224 1-750 (protein)
chain: T1 chain
As to B1, the binding entry was “binds”.
